Laboratory results taken from publication PMC7862700.
The list shows a part of the results, in another mix than the full data. For some of these results: At the low end of the ranking, values are background and their order means little. The list shows a part of the results. For some of these results: The source does not settle which construct or isoform was used.

Each sequence was assayed against T1, ERG (UniProt P11308) (assay: DAPPL (digital affinity profiling via proximity ligation, sequencing)). Conditions: 10 mM Tris-HCl pH 7.5, 50 mM NaCl, 1 mM DTT, 4% glycerol, room temperature, 30 min; GST-TFs on glutathione beads, 16-mer random dsDNA library, 0.1% …; high values mean tight binding; double strand, one strand shown; scale: fold enrichment (6-mer frequency, TF over GST control).
T1 sequence: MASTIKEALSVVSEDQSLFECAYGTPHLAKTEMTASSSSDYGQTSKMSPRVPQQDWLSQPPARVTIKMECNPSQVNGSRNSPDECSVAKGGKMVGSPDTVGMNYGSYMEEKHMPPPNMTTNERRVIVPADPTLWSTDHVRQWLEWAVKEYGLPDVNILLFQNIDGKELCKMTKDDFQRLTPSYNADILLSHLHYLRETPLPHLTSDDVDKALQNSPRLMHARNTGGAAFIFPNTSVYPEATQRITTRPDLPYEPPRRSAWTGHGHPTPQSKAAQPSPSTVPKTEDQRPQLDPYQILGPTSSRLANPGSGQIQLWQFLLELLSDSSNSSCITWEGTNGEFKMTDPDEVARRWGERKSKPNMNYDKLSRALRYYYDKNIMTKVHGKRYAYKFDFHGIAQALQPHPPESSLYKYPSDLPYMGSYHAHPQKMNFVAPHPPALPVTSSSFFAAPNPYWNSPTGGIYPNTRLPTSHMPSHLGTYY
Work on GCAGCT yielded a binding signal of 1.02.
TCCTGT showed a binding signal of 1.94.
CTGCGT showed a binding signal of 1.13.
Sequence ACACGG has a binding signal of 0.997.
TCTCCA gave a binding signal of 1.37.
TACGGT was tested, and the binding signal was 1.02.
TTCCCA showed a binding signal of 1.3.
Work on CGCACT yielded a binding signal of 1.21.
For CGCGTT, the binding signal was 0.994.
CTTATA gave a binding signal of 1.28.
For CAAAAG, the binding signal was 0.971.
AGTGGT was tested, and the binding signal was 1.06.
For TGCGGA, the binding signal was 1.37.
Work on TCGTCC yielded a binding signal of 0.961.
For GGCTAA, the binding signal was 0.952.
CGCACG gave a binding signal of 0.925.
With TGAATC the binding signal was 0.993.
AATACT gave a binding signal of 1.22.
Sequence GTACCA has a binding signal of 0.964.
TTTCAT gave a binding signal of 1.15.
In the case of TAGCGT, the binding signal is reported as 0.986.
GTAATG was tested, and the binding signal was 1.05.
TCCATA gave a binding signal of 1.25.
CACTGA was tested, and the binding signal was 0.992.
With GATGTC the binding signal was 1.41.
TATCTG was tested, and the binding signal was 1.25.
ATTTGC showed a binding signal of 1.32.
GTTTTG gave a binding signal of 1.25.
ACTATA showed a binding signal of 1.31.
With GATACC the binding signal was 0.956.
Sequence TAATCA has a binding signal of 1.07.
In the case of TCATGA, the binding signal is reported as 0.986.
CGCCAC gave a binding signal of 0.972.
In the case of CATTGA, the binding signal is reported as 0.896.
CTGCAG gave a binding signal of 0.962.
Sequence TCCCGA has a binding signal of 1.27.
With CGGTAT the binding signal was 1.13.
In the case of TCAGCA, the binding signal is reported as 0.998.
With ACTGTC the binding signal was 0.983.

The sequences below were run against T2, ETV4 (UniProt P43268) in the same assay as above. Conditions: 10 mM Tris-HCl pH 7.5, 50 mM NaCl, 1 mM DTT, 4% glycerol, room temperature, 30 min; GST-TFs on glutathione beads, 16-mer random dsDNA library, 0.1% …; high values mean tight binding; double strand, one strand shown; scale: fold enrichment (6-mer frequency, TF over GST control).
T2 sequence: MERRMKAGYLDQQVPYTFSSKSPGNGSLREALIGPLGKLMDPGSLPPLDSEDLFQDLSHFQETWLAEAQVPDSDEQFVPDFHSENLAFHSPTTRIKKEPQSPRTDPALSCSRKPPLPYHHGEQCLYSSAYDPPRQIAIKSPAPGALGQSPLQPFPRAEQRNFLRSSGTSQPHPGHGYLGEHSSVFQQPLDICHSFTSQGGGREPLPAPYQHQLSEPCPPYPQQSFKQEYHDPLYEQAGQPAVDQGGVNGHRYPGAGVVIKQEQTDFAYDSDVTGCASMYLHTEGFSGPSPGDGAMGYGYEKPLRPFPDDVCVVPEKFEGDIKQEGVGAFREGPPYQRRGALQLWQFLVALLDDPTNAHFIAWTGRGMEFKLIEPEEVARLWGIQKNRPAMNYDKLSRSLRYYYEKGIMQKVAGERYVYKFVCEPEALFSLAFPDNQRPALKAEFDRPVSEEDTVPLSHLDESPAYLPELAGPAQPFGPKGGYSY
Work on GCAGCT yielded a binding signal of 1.06.
TCCTGT gave a binding signal of 1.66.
CTGCGT was tested, and the binding signal was 1.15.
ACACGG showed a binding signal of 0.99.
Sequence TCTCCA has a binding signal of 1.5.
Work on TACGGT yielded a binding signal of 1.01.
TTCCCA showed a binding signal of 1.22.
CGCACT was tested, and the binding signal was 1.26.
Sequence CGCGTT has a binding signal of 0.991.
CTTATA was tested, and the binding signal was 1.27.
For CAAAAG, the binding signal was 0.937.
Sequence AGTGGT has a binding signal of 1.06.
Work on TGCGGA yielded a binding signal of 1.15.
TCGTCC was tested, and the binding signal was 1.03.
GGCTAA gave a binding signal of 0.947.
In the case of CGCACG, the binding signal is reported as 0.965.
With TGAATC the binding signal was 0.956.
AATACT gave a binding signal of 1.2.
In the case of GTACCA, the binding signal is reported as 0.976.
For TTTCAT, the binding signal was 1.15.
TAGCGT was tested, and the binding signal was 0.934.
For GTAATG, the binding signal was 1.04.
Sequence TCCATA has a binding signal of 1.25.
Sequence CACTGA has a binding signal of 1.1.
GATGTC showed a binding signal of 1.39.
For TATCTG, the binding signal was 1.16.
With ATTTGC the binding signal was 1.31.
With GTTTTG the binding signal was 1.23.
With ACTATA the binding signal was 1.39.
With GATACC the binding signal was 1.01.
With TAATCA the binding signal was 1.19.
Work on TCATGA yielded a binding signal of 1.03.
Work on CGCCAC yielded a binding signal of 0.984.
CATTGA was tested, and the binding signal was 0.965.
With CTGCAG the binding signal was 1.15.
With TCCCGA the binding signal was 1.26.
CGGTAT was tested, and the binding signal was 1.05.
TCAGCA gave a binding signal of 1.03.
Work on ACTGTC yielded a binding signal of 1.02.

These sequences were tested against T3, ERF (UniProt P50548) in the same assay as above. Conditions: 10 mM Tris-HCl pH 7.5, 50 mM NaCl, 1 mM DTT, 4% glycerol, room temperature, 30 min; GST-TFs on glutathione beads, 16-mer random dsDNA library, 0.1% …; high values mean tight binding; double strand, one strand shown; scale: fold enrichment (6-mer frequency, TF over GST control).
T3 sequence: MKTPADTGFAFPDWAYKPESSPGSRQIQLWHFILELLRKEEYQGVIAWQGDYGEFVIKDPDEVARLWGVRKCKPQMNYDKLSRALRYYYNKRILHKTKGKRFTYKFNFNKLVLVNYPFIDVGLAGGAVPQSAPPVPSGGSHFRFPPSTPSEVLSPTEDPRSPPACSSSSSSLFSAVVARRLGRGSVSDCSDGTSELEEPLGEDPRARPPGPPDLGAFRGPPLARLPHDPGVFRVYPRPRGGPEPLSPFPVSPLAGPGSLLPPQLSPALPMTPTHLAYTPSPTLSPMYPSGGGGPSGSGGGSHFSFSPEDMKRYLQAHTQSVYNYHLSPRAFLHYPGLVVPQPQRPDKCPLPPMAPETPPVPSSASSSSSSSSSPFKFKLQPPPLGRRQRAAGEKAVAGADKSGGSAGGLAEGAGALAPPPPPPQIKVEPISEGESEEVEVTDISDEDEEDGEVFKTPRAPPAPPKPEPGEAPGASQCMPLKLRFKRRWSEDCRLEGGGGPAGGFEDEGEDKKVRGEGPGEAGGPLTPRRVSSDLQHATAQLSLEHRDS
In the case of GCAGCT, the binding signal is reported as 0.94.
Work on TCCTGT yielded a binding signal of 1.6.
CTGCGT gave a binding signal of 1.13.
ACACGG gave a binding signal of 0.993.
TCTCCA gave a binding signal of 1.42.
Work on TACGGT yielded a binding signal of 0.971.
With TTCCCA the binding signal was 1.24.
In the case of CGCACT, the binding signal is reported as 1.21.
With CGCGTT the binding signal was 0.949.
Work on CTTATA yielded a binding signal of 1.29.
Work on CAAAAG yielded a binding signal of 0.963.
With AGTGGT the binding signal was 1.14.
TGCGGA gave a binding signal of 1.14.
TCGTCC showed a binding signal of 0.994.
Work on GGCTAA yielded a binding signal of 0.979.
In the case of CGCACG, the binding signal is reported as 1.06.
In the case of TGAATC, the binding signal is reported as 0.984.
With AATACT the binding signal was 1.19.
GTACCA gave a binding signal of 1.04.
In the case of TTTCAT, the binding signal is reported as 1.25.
Sequence TAGCGT has a binding signal of 0.983.
With GTAATG the binding signal was 1.12.
TCCATA was tested, and the binding signal was 1.37.
CACTGA was tested, and the binding signal was 0.937.
GATGTC was tested, and the binding signal was 1.29.
Work on TATCTG yielded a binding signal of 1.2.
With ATTTGC the binding signal was 1.32.
For GTTTTG, the binding signal was 1.25.
Sequence ACTATA has a binding signal of 1.29.
With GATACC the binding signal was 0.868.
Sequence TAATCA has a binding signal of 1.09.
In the case of TCATGA, the binding signal is reported as 0.968.
In the case of CGCCAC, the binding signal is reported as 0.968.
TCCCGA gave a binding signal of 1.34.
Work on CGGTAT yielded a binding signal of 1.02.
TCAGCA showed a binding signal of 0.97.
ACTGTC showed a binding signal of 0.892.
